In publication PMC4982076, “lin28 proteins promote expression of 17∼92 family miRNAs during amphibian development”:
Construct, isoform or probe ends are uncertain for at least one entry. Where cells or extracts were used, other partners may take part.

What was measured:
[1] = system: lin28a2; experiment: EMSA supershift; conditions: embryo extract, anti-lin28a; 60 mM KCl, 10 mM HEPES pH 7.6, 3 mM MgCl2, 5% glycerol, 1 mM DTT, 5 ug/ul heparin, 150 ng yeast total RNA; 30 min room temperature; 10% native PAGE; protein in a lysate after overexpression; label: 32P (unlabelled as competitor)
[2] = system: lin28a1; experiment: EMSA supershift; conditions: embryo extract, anti-lin28a; 60 mM KCl, 10 mM HEPES pH 7.6, 3 mM MgCl2, 5% glycerol, 1 mM DTT, 5 ug/ul heparin, 150 ng yeast total RNA; 30 min room temperature; 10% native PAGE; protein in a lysate after overexpression; label: 32P (unlabelled as competitor)

“UGCAAUUUUAUUUAGUUUGGUAGGAGAAAAAUUGC [L-mir-363]”: binds [1]; binds [2].
